Assay results: US5804576A, “Derivatives of 5-androsten-17-ones and 5-androstan-17-ones” (Research Corporation Technologies, Inc., priority 1986, dated 1998)
“Also recorded” adds a separate entry of the source.

Experiments:
[1] = system: (3H) DMBA binding to skin DNA; test: [3H]DMBA binding to mouse skin DNA, topical steroid; assay type: in vivo, mouse (A/J); conditions: for average food consumed: ad libitum fed plus steroid, two weeks; for mean weight following two weeks of feeding: ad libitum fed, treated, n=6
Description: Skin tumors can be induced in the mouse either by weekly application of a carcinogen such as […] (DMBA), or alternatively,by a single sub-threshold dose of the carcinogen followed by twice weekly applications of the tumor promoter tetradecanoylphorbol-13-acetate (TPA). In order to exert its carcinogenic effect, DMBA must be metabolized by an NADPH-dependent mixed-function oxidase to chemically reactive intermediates which bind covalently to DNA and produce mutations leading to malignant transformation. […] This effect of DHEA very probably is a result of the inhibition of G6PDH and lowering of the intracellular pool of NADPH, which is a co-factor for the mixed-function oxidase activation of DMBA.
Binding of [^3 H]DMBA to mouse skin DNA was determined as described in Pashko, L. L., and Schwartz, A. G. (1983), Effect of food restriction, dehydroepiandrosterone, or obesity on the binding of ^3 H-7,12-dimethylbenz(a)-anthracene to mouse skin DNA, J. Gerontol., 38, 8-12. Values are mean±SD for 3 individual determinations, with pooled tissue from 2 mice used for each determination. DHEA or testosterone (400 ug in 0.2 ml acetone) was applied to the skin one hour before [^3 H]DMBA. The mean weight of the food restricted mice was 18.5±1.0 gm, n=6, of the ad libitum fed, 27.4±1.0 gm, n=6, of the ad libitum fed treated with DHEA, 28.2±0.9 gm, n=6, and of the ad libitum fed treated with testosterone, 28.3±0.9 gm, n=6, following two weeks of feeding. The average food consumed was, in gm/mouse/day, 2.2, 3.8, 3.8 and 4.0 for the food restricted, ad libitum fed, ad libitum fed plus DHEA, and ad libitum fed plus testosterone groups, respectively.

[2] = Anti-obesity test (body weight, food consumption); assay type: in vivo, mouse (male A/J); conditions: DHEA treated mice, first week and thereafter
Procedure: Male A/J mice (5 weeks old) were obtained from the Jackson Laboratory and were housed in polycarbonate cages (5 mice/cage) in animal quarters maintained at 24°±1° C. with 12 hours of light and 12 hours of darkness each day. One week after arrival, the mice were placed on a chow diet containing varying concentrations of DHEA or other steroid. Animals were weighed weekly; food consumption was determined weekly by subtracting the amount of food remaining in the cage from the amount added.
Male A/J (5 weeks old) were obtained from the Jackson Laboratory and were housed in polycarbonate cages (5 mice/cage) in animal quarters maintained at 24°±1° C. with 12 hours of light and 12 hours of darkness each day. One week after arrival, the mice were placed on a diet containing either DHEA, 19, or without steroid. Animals were weighed weekly. The concentration of DHEA or 19 used in the food was 0.54%.
Male A/J mice (5 weeks old) were obtained from the Jackson Laboratory and were housed in polycarbonate cages (5 mice/cage) in animal quarters maintained at 24°±1° C. with 12 hours of light and 12 hours of darkness each day. One week after arrival, the mice were placed on a show diet containing DHEA, 16, or 21 at 0.36%. Animals were weighed weekly.

| Compound | average food consumed [1] [gm/mouse/day] | mean weight following two weeks of feeding [1] [gm] | food consumption (in words) [2] |
| --- | --- | --- | --- |
| C[C@]12CC[C@H](O)CC1=CC[C@@H]1[C@@H]2CC[C@]2(C)C(=O)CC[C@@H]12 [DHEA, 3β-Hydroxy-5-androst-en-17-one, reference compound] | 3.8 | 28.2±0.9 | initial depression in food consumption in the DHEA treated mice in the first week; also recorded: equal to or slightly greater than the control mice |
| C[C@]12CC[C@H]3[C@@H](CCC4=CC(=O)CC[C@@]43C)[C@@H]1CC[C@@H]2O [testosterone] | 4.0 | 28.3±0.9 | – |
